According to paper PMC5503580:
No constants are given. Whether binding was seen depends on the method and setting. Binding seen in cells or lysates may run through a third protein. Some entries that bind do so weakly or less than the wild type.

Sequences of proteins named here, by UniProt entry; tags and fusion partners are left off. Residues count along the entry.
UniProt P35968, residues 20-1356: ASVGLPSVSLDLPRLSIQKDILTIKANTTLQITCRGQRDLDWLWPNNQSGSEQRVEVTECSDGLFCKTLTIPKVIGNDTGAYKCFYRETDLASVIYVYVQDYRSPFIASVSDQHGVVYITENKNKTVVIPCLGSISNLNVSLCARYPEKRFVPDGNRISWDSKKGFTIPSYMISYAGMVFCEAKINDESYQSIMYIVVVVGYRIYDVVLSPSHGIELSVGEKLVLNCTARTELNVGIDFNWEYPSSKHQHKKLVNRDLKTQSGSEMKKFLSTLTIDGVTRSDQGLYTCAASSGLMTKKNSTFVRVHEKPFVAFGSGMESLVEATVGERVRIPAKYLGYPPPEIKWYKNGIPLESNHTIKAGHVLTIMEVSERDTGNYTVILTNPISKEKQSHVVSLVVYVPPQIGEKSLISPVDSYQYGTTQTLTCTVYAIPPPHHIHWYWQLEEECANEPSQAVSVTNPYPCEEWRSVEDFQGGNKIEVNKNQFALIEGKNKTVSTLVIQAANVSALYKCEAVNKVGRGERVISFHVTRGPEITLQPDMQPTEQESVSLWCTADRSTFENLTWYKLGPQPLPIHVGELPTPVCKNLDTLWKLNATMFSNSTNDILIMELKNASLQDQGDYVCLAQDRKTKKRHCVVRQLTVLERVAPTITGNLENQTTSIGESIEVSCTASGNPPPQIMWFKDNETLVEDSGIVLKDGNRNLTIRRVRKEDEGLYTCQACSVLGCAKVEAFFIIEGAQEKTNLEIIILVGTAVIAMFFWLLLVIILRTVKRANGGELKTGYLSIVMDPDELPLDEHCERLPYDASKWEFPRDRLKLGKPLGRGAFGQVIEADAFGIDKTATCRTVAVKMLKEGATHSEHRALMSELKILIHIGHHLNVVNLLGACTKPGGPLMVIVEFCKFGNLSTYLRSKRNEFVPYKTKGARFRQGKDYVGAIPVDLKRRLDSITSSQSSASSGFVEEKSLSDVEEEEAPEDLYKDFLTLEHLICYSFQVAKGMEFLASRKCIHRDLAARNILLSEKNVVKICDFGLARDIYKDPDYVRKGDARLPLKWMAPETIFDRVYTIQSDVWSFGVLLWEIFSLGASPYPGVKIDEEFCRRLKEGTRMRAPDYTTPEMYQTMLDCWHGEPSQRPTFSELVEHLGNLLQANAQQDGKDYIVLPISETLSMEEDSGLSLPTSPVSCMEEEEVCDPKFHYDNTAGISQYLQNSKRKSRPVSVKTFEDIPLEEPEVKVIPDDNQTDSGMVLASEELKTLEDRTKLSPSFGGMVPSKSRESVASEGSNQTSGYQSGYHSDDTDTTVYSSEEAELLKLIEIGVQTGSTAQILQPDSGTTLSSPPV
UniProt P52799, residues 28-333: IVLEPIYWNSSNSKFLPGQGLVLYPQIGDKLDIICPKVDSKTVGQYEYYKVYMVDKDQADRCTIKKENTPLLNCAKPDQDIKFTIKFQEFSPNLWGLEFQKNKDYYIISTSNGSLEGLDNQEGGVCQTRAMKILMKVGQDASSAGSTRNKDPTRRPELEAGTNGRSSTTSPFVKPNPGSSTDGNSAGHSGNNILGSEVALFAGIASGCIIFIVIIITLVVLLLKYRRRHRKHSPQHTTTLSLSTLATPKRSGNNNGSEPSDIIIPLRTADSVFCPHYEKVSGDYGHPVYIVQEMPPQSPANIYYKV
UniProt O00560: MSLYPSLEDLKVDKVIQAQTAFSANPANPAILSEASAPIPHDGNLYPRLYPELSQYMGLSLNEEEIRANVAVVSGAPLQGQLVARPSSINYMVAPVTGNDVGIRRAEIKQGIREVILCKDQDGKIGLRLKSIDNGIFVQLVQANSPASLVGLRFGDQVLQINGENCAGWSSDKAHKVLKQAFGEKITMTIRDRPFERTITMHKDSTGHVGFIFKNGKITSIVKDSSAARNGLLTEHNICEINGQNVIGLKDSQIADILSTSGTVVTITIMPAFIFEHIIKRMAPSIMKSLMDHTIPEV

Tests used:
[1] = target: VEGFR2 (transfected, pCMV-HA construct) (UniProt P35968); test: co-IP; HEK293 cells transfected with VEGFR2 and Flag-syntenin; whole cell lysates immunoprecipitated with Flag or VEGFR2 antibody and protein A/G agarose; lysis buffer 50 mM Tris-HCl pH 7.4, 150 mM NaCl, 1 mM EDTA, 5 mM sodium orthovanadate, 1% NP-40
[2] = target: ephrin-B2 (endogenous, HUVEC) (human (endogenous in HUVEC)) (UniProt P52799); test: co-IP; endogenous proteins in HUVEC whole cell lysates (untransfected, control siRNA or ephrin-B2 siRNA); immunoprecipitated with VEGFR2, ephrin-B2 or syntenin antibody and protein A/G agarose; lysis buffer 50 mM Tris-HCl pH 7.4, 150 mM NaCl, 1 mM EDTA, 5 mM sodium orthovanadate, 1% NP-40
[3] = target: VEGFR2 (endogenous, HUVEC) (human (endogenous in HUVEC)) (UniProt P35968); test: as above

| Substance | binding [1] | binding [2] | binding [3] |
| --- | --- | --- | --- |
| Flag-syntenin (from UniProt O00560 1-298) | binds | – | – |
| syntenin (endogenous, HUVEC) (from UniProt O00560 1-298) | – | binds | binds |
